Some peptides are written in HELM: one residue between dots, names in brackets for other building blocks, links after the first $.
Assay: peptide synthesis
Details: conjugation step

“PEPTIDE1{D.[Arg(carb)].V.Y.I.H.P.F}$$$$V2.0” gave a conjugation yield of 13%.

From PMC9667534 (ACS Pharmacology & Translational Science, 2022)
